The list shows a part of the results. Shown are side measurements of this screen, not its main read-out; they come without a call. Most of these compounds were active or inconclusive in the main read-out, so they are no random draw. Potencies come from curve fits of mixed quality, noted in brackets.
Assay: qHTS Assay for Lipid Storage Modulators in Drosophila S3 Cells;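 on cell number change: cells counted by Cell Tracker Red CMTPX staining in the red channel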
Details: BODIPY lipid droplet fluorescence, 18-24 h; for cell number change: measured here: cell count max response, cells fed with added oleic acid
Procedure, shortened: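 Drosophila S3 cells loaded with oleic acid (400 uM, as added) and compounds at several concentrations; lipid droplets imaged by 488-nm laser-scanning cytometry, 500–530 nm intensity and object ratio to cell channel. Percent activity normalized to 20 uM Triacsin C.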

[1] = measured here: lipid fluorescence (Fed channel) AC50, cells fed with added oleic acid
[2] = measured here: cell number channel AC50, cells fed with added oleic acid

SMILES | cell number change | AC50 [1] | AC50 [2]
CC(=O)Nc1ccc(NC(=O)CSc2nnc(NC(=O)c3cccc(F)c3)s2)cc1 | 1.89% | 0.13 µM [rising, full curve, poor fit] | 
CCC(CC)NC(=O)c1cccc([N+](=O)[O-])c1C |  |  | 0.58 µM [falling, single point]
O=C(NCc1ccncc1)c1ccc(NS(=O)(=O)c2ccc(F)cc2)cc1 | -9.47% | 3.26 µM [falling, partial curve, poor fit] | 
CCOC(=O)C1(Cc2cccc(F)c2)CCN(C(=O)C2CCC2)CC1 | 10.5% | 6.51 µM [rising, partial curve] | 
CCOC(=O)c1c(C)c(C(=O)NCCCOC)c(C)n1C |  | 2.91 µM [rising, single point] | 
CCOC(=O)c1c(NCc2ccccc2)n[nH]c1C | -5.55% | 0.731 µM [rising, single point] | 
COc1ccc(C(=O)NC(=O)COC(=O)C2COc3ccccc3O2)cc1 (stereo not drawn) | -56.3% | 14.6 µM [falling, partial curve] | 9.2 µM [falling, partial curve]
CCCn1nnc(NC(=S)NC(=O)Cc2ccccc2)n1 |  | 0.517 µM [rising, single point] | 0.13 µM [rising, full curve, poor fit]
CC(C)N1C(=S)SC(C)(C)C1NO (stereo not drawn) | -20.1% | 1.3 µM [falling, full curve, poor fit] | 
COc1ccc(-c2cnn3c4c(c(C)nc23)CCN4C2CCCC2)cc1OC | 60.4% | 14.6 µM [rising, partial curve] | 10.3 µM [rising, partial curve, poor fit]
O=C(CSc1nc(-c2ccccc2)cc(C(F)(F)F)n1)NCc1cccs1 | -6.97% | 0.326 µM [falling, full curve, poor fit] | 
Cc1ccc(NC(=O)C2=C(c3ccccc3)S(=O)(=O)CCS2(=O)=O)cc1 | -156% | 6.51 µM [falling, partial curve] | 7.31 µM [falling, partial curve]
Oc1ccccc1/C=N/n1cnnc1 | -31.9% | 1.03 µM [falling, full curve] | 0.651 µM [falling, full curve]
O=C(CN1C(=O)c2ccccc2C1=O)NCc1ccc(C(=O)O)cc1 | 12.6% |  | 
COCCn1c(SCC(=O)N2CCCC2)nnc1-c1ccco1 | 9.21% |  | 
Cc1cccc(CCNC(=O)C2CCCN(S(=O)(=O)c3cnc[nH]3)C2)c1 (stereo not drawn) | 20.3% | 3.66 µM [falling, single point] | 
Cc1cccc(NS(=O)(=O)c2ccc(C(=O)NCC3CCCO3)cc2)c1C (stereo not drawn) | -4.53% | 2.91 µM [rising, partial curve, poor fit] | 
COc1ccc(N2Cc3cccc(C(=O)N4CCN(C(=O)c5ccco5)CC4)c3C2=O)cc1 | -1.01% | 0.206 µM [falling, partial curve, poor fit] | 
Cc1cc2cc(CN(CC3CCCO3)C(=O)c3cnccn3)c(=O)[nH]c2cc1C (stereo not drawn) |  | 2.31 µM [rising, single point] | 
CCCCn1c(N)c(N(CCC(C)C)C(=O)c2ccc(-c3ccc([N+](=O)[O-])cc3)o2)c(=O)[nH]c1=O | -31.7% | 10.3 µM [falling, partial curve, poor fit] | 10.3 µM [falling, partial curve, poor fit]

Some values from above:
`Cc1cccc(CCNC(=O)C2CCCN(S(=O)(=O)c3cnc[nH]3)C2)c1` (stereo not drawn) – AC50 [1]: 3.66 µM [falling, single point]
`CCCn1nnc(NC(=S)NC(=O)Cc2ccccc2)n1` – AC50 [2]: 0.13 µM [rising, full curve, poor fit]

(list continues)

SMILES | cell number change | AC50 [1] | AC50 [2]
CCOc1c(Cl)cc(C(=O)NCCN2CCCCC2)cc1Cl | 1.48% | 6.51 µM [rising, partial curve, poor fit] | 
Cc1nnc(SCC(=O)N(C)C2CCCCC2)s1 | -15.2% | 0.103 µM [falling, full curve, poor fit] | 
CC(C)Cn1nc(NC(=O)C(C)(C)C)c2cc3ccccc3nc21 | -3.26% | 14.6 µM [rising, single point] | 
Cc1nn(C)c(C(=O)Nc2c(C)nn(Cc3c(F)c(F)c(F)c(F)c3F)c2C)c1Br | -20.1% | 6.51 µM [rising, single point] | 
COc1ccc(N2C(=O)c3cccc4c(N(C)CCO)ccc(c34)C2=O)cc1 | -8.78% | 29.1 µM [falling, single point] | 
COc1ccccc1C(=O)Nc1ccc(N2CCN(Cc3ccccc3)CC2)cc1 | 17.5% | 3.66 µM [rising, single point] | 
CCCCCn1c(SCCCC)nc2c1c(=O)[nH]c(=O)n2C | 5.03% |  | 
O=c1c2ccccc2ncn1Cc1nc2ccccc2s1 | -14% | 6.51 µM [falling, single point] | 0.103 µM [falling, full curve, poor fit]
CCN(c1cccc(C)c1)S(=O)(=O)c1cc2c3c(c1)CCC(=O)N3CCC2 | 40.4% |  | 1.84 µM [rising, full curve]
Cc1ccc(-n2nc3c(c2NC(=O)c2ccc4c(c2)OCO4)CS(=O)C3)cc1 (stereo not drawn) | 28.6% | 0.00461 µM [falling, full curve, poor fit] | 
CCCCn1c(N)c(N(CCOC)C(=O)c2ccc(C)o2)c(=O)[nH]c1=O | -0.462% | 16.4 µM [falling, partial curve, poor fit] | 
C=CCNC(=S)Nc1sc2c(c1C(=O)OCC)CCN(C(=O)OCC)C2 | 1.03% | 2.31 µM [rising, partial curve] | 
Cc1ccc(CNC(=O)COC(=O)c2ccc(S(=O)(=O)N3CCCCCC3)cc2)cc1 | -99.7% |  | 20.6 µM [falling, partial curve]
Oc1ccc(/C=N/NC(=S)NCCN2CCOCC2)c(O)c1 | -20.5% | 3.66 µM [falling, full curve] | 6.51 µM [falling, single point]
COC(=O)c1sc(NC(=O)Cc2cccs2)nc1C | 97.5% |  | 0.0731 µM [rising, full curve, poor fit]
COc1ccc(Cl)cc1CSc1n[nH]c(C)n1 | -3.61% | 29.1 µM [rising, single point] | 
COc1cccc(NC(=O)C(C)N2C(=O)c3ccccc3S2(=O)=O)c1 (stereo not drawn) | 15.2% | 0.326 µM [falling, partial curve, poor fit] | 
CN(Cc1nccs1)C(=O)c1ccc(OC2CCN(Cc3ccccn3)CC2)cc1 | -14.4% | 29.1 µM [rising, single point] | 
CN(C)C(=O)c1ccc(NC(=O)COc2cccc3c2OC(C)(C)C3)cc1 | 15.3% |  | 
Cc1cccc(NS(=O)(=O)c2ccc3c(c2)NC(=O)CC(=O)N3)c1 | -28.3% |  | 0.184 µM [rising, full curve, poor fit]

By substructure, the entries above with an aryl thioether with sulfur outside any ring
SMILES | cell number change | AC50 [1] | AC50 [2]
CC(=O)Nc1ccc(NC(=O)CSc2nnc(NC(=O)c3cccc(F)c3)s2)cc1 | 1.89% | 0.13 µM [rising, full curve, poor fit] | 
O=C(CSc1nc(-c2ccccc2)cc(C(F)(F)F)n1)NCc1cccs1 | -6.97% | 0.326 µM [falling, full curve, poor fit] | 
COCCn1c(SCC(=O)N2CCCC2)nnc1-c1ccco1 | 9.21% |  | 
Cc1nnc(SCC(=O)N(C)C2CCCCC2)s1 | -15.2% | 0.103 µM [falling, full curve, poor fit] | 
CCCCCn1c(SCCCC)nc2c1c(=O)[nH]c(=O)n2C | 5.03% |  | 
COc1ccc(Cl)cc1CSc1n[nH]c(C)n1 | -3.61% | 29.1 µM [rising, single point] | 

Remaining list, next part:

SMILES | cell number change | AC50 [1] | AC50 [2]
O=C1CS/C(=N/N=C/c2cccs2)N1 |  | 29.1 µM [rising, single point] | 
C1CCc2c(nnc3c2-c2nonc2CC3)C1 | -45.1% | 18.4 µM [falling, single point] | 29.1 µM [falling, single point]
Cc1nc2nc(-c3ccc(F)cc3)cn2nc1C | 13.9% |  | 
COc1ccc(NC(=O)CN2CCN(Cc3ccc4c(c3)OCO4)CC2)cc1OC | 34.7% |  | 6.51 µM [rising, partial curve, poor fit]
O=C(CSc1nc2ccccc2n1S(=O)(=O)c1ccccc1)N1CCCC1 | 16.8% | 0.58 µM [rising, full curve, poor fit] | 
CCN(C(=O)c1cc2c(s1)-c1ccccc1OC2)c1cc(OC)ccc1OC | 7.78% | 0.092 µM [rising, full curve, poor fit] | 
CC(=O)Nc1c(O)nc(SCC(=O)N2CCN(c3ccc(F)cc3)CC2)[nH]c1=O | 0.199% | 0.651 µM [falling, full curve] | 0.103 µM [falling, full curve, poor fit]
COc1ccccc1OCC(=O)N1CCCC(Nc2cccc(F)c2)C1 (stereo not drawn) | -12.9% | 0.58 µM [rising, single point] | 
CC1CCC(=NNc2ccc(C(F)(F)F)cc2[N+](=O)[O-])CC1 (stereo not drawn) | 1.1% | 13 µM [falling, partial curve] | 
CN(C(=O)COC(=O)c1ccc([N+](=O)[O-])cc1N)c1ccccc1 | -11.5% | 29.1 µM [falling, single point] | 
CCCCCc1nc2ccccc2c(=O)n1N | -69.3% |  | 8.2 µM [falling, partial curve]
O=C(OCc1cncs1)c1ccccc1 | -21.2% | 29.1 µM [falling, single point] | 
Nc1ncnc(Oc2cccc(C(F)(F)F)c2)c1[N+](=O)[O-] | -9.05% |  | 
Cc1ccccc1NC(=O)COC(=O)c1c(-c2ccccc2)noc1C | -8.34% | 6.51 µM [rising, full curve] | 
Cc1ccnc(NS(=O)(=O)c2ccc(NC(=O)C34CC5CC(CC(C5)C3)C4)cc2)n1 | -14% | 0.0259 µM [falling, full curve, poor fit] | 0.731 µM [falling, partial curve, poor fit]
CC(=O)N1CCN(CC(=O)Nc2cccc(S(=O)(=O)N3CCCCCC3)c2)CC1 | 17.5% |  | 
CCN1CCN(CCCN(Cc2cccs2)C(=S)Nc2ccccc2C)CC1 | 87% | 23.1 µM [rising, single point] | 29.1 µM [rising, single point]
COc1ccc(-c2nnc(Nc3nc4c(OC)cccc4s3)o2)c(OC)c1 | -23.3% | 23.1 µM [falling, single point] | 
Cc1cccc2cc(COC(=O)C(C)C)c(=O)[nH]c12 | -14.2% | 9.2 µM [rising, partial curve] | 
